Test results reported in PubChem BioAssay AID1347076 (National Center for Advancing Translational Sciences (NCATS), 2019).
Where “and” joins values, the source holds several entries; their conditions need not be identical. Equal entries are not always repeated. Out of some 400,000 compounds screened, about 13,000 (3.2%) were called active. The inconclusive results got no clear call from the source; some entries with a clear call stand among them for comparison. Calls follow the shape of the dose curve; as a rule, active = well fitted cell-killing curve with a large enough effect; inconclusive = small, poorly fitted or top-dose-only effect, or effect the other way; inactive = flat fitted curve, though single readings scatter. A potency beside an inconclusive call is a rough fit, not a confirmed value.

Assay: qHTS assay for MDR1-selective chemotherapeutics: Primary screen using the drug-selected MDR subline cells KB-V1; also: nearly all actives have a fitted effect of over 60% in size
Settings: KB-V1 MDR cells viability, CellTiter-Glo, 72 h; activity change, negative = cytotoxicity: at 46.1 µM (top of the series)
Outline: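 Drug-selected KB-V1 cells, grown in DMEM lacking phenol red with 10% FBS, receive compound titrations; after three days at 37 degrees C, surviving cell ATP is quantified by CellTiter-Glo luminescence and responses normalized and curve-fitted.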
% is scaled to controls: 0 for no effect and ±100 for the full control effect; potency is read from the fitted curve at half-maximal effect.

Compound | Potency | activity change, negative = cytotoxicity
COc1ccc(Cl)cc1S(=O)(=O)N1CCN(Cc2ccc3c(c2)OCO3)CC1 | inconclusive: 20.6 µM [cytotoxic, partial curve] | 
O=c1c(-c2ccccc2)coc2c(CN3CCCC3)c(O)ccc12 | inconclusive: 31.6 µM [rising, partial curve, poor fit] | 
Cc1noc(C)c1S(=O)(=O)N(C)C[C@H]1OCc2cnnn2CCCC(=O)N([C@@H](C)CO)C[C@H]1C |  | inconclusive: -37.1% [cytotoxic]
COc1ccc(OC)c(/C=N/N=C2\SCC(=O)N2Cc2ccco2)c1 | inconclusive: 18.4 µM [cytotoxic, single point] | 
COc1ccc(C(=O)NN(C)c2nc(-c3ccccc3)cc(C)c2S(C)(=O)=O)cc1 | inconclusive: 10.3 µM [cytotoxic, partial curve] | 
C(=C\c1ccccc1)/CN1CCN(C(c2cccs2)c2nnnn2Cc2ccccc2)CC1 (stereo unspecified) | inconclusive: 23.1 µM [cytotoxic, single point] | 
CC(C)Cc1ccc(/C=C/C(=O)NC2CC2)cc1 | inconclusive: 20.6 µM [cytotoxic, single point] | 
O=C(CSc1ccc2nnc(-c3ccc(F)cc3)n2n1)N1CCCc2ccccc21 | inconclusive: 18.4 µM [cytotoxic, partial curve, poor fit] | 
COC(=O)c1sc(S(=O)(=O)NCC(=O)O)c(C(=O)OC)c1C | inconclusive: 20.6 µM [rising, single point] | 
CC(C)C(=O)N[C@H]1CCC2C3CC=C4C[C@@H](O)CC[C@]4(C)C3CC[C@@]21C (stereo partly specified) |  | inactive: 8.81%
COc1cccc(-c2cc(C(=O)Nc3c(C)n(C)n(-c4ccccc4)c3=O)no2)c1 | inconclusive: 11.6 µM [cytotoxic, partial curve, poor fit] | 
CCc1ccc(CNC(=O)C2CCN(S(=O)(=O)N3CCC(C)CC3)CC2)cc1 |  | inactive: -8.24%
Clc1ccc(-c2ccc(CNCCSc3nnnn3-c3ccccc3)o2)cc1 |  | inactive: -8.68%
CCCCN(C)C(=O)C1CCN(c2ccc(S(=O)(=O)N3CCOCC3)cc2[N+](=O)[O-])CC1 | inconclusive: 9.2 µM [cytotoxic, partial curve] | 
CCOc1ccccc1N1CC(C(=O)NCCC2=CCCCC2)CC1=O (stereo unspecified) |  | inactive: -4.05%
COc1ccc(OC)c(CN2CCN(C(=O)c3cccs3)CC2)c1 | active: 20.6 µM | 
C[C@H]1CN=C(N(C)C)N1CC1CCCCC1 |  | inactive: 31%
Cc1ccc(OCCNC(=O)CNC(=O)c2ccc(Cl)c([N+](=O)[O-])c2)cc1 |  | inconclusive: 32.1%
COc1ccc(OCC(=O)Nc2ccc(S(=O)(=O)N(C)c3ccccc3)cc2)cc1 | inconclusive: 25.9 µM [rising, single point] | 
Cc1noc(C)c1COC(=O)Cn1c(C)nc2ccccc21 | inconclusive: 25.9 µM [rising, partial curve, poor fit] | 
COc1c(C)c2c(c(O)c1C/C=C(\C)CCC(=O)O)C(=O)OC2 | inconclusive: 25.9 µM [cytotoxic, partial curve, poor fit] | 
Cc1ccc(N2CS(=O)(=O)/C(=C/N(C)C)C2=O)cc1 | inconclusive: 11.6 µM [cytotoxic, partial curve] | 

Arranged by formula weight (ascending): 19 of the compounds above.
Compound | Potency | activity change, negative = cytotoxicity
C[C@H]1CN=C(N(C)C)N1CC1CCCCC1 |  | inactive: 31%
CC(C)Cc1ccc(/C=C/C(=O)NC2CC2)cc1 | inconclusive: 20.6 µM [cytotoxic, single point] | 
Cc1ccc(N2CS(=O)(=O)/C(=C/N(C)C)C2=O)cc1 | inconclusive: 11.6 µM [cytotoxic, partial curve] | 
Cc1noc(C)c1COC(=O)Cn1c(C)nc2ccccc21 | inconclusive: 25.9 µM [rising, partial curve, poor fit] | 
COc1c(C)c2c(c(O)c1C/C=C(\C)CCC(=O)O)C(=O)OC2 | inconclusive: 25.9 µM [cytotoxic, partial curve, poor fit] | 
O=c1c(-c2ccccc2)coc2c(CN3CCCC3)c(O)ccc12 | inconclusive: 31.6 µM [rising, partial curve, poor fit] | 
COc1ccc(OC)c(CN2CCN(C(=O)c3cccs3)CC2)c1 | active: 20.6 µM | 
COC(=O)c1sc(S(=O)(=O)NCC(=O)O)c(C(=O)OC)c1C | inconclusive: 20.6 µM [rising, single point] | 
CCOc1ccccc1N1CC(C(=O)NCCC2=CCCCC2)CC1=O (stereo unspecified) |  | inactive: -4.05%
COc1ccc(OC)c(/C=N/N=C2\SCC(=O)N2Cc2ccco2)c1 | inconclusive: 18.4 µM [cytotoxic, single point] | 
CC(C)C(=O)N[C@H]1CCC2C3CC=C4C[C@@H](O)CC[C@]4(C)C3CC[C@@]21C (stereo partly specified) |  | inactive: 8.81%
COc1cccc(-c2cc(C(=O)Nc3c(C)n(C)n(-c4ccccc4)c3=O)no2)c1 | inconclusive: 11.6 µM [cytotoxic, partial curve, poor fit] | 
CCc1ccc(CNC(=O)C2CCN(S(=O)(=O)N3CCC(C)CC3)CC2)cc1 |  | inactive: -8.24%
Clc1ccc(-c2ccc(CNCCSc3nnnn3-c3ccccc3)o2)cc1 |  | inactive: -8.68%
O=C(CSc1ccc2nnc(-c3ccc(F)cc3)n2n1)N1CCCc2ccccc21 | inconclusive: 18.4 µM [cytotoxic, partial curve, poor fit] | 
COc1ccc(Cl)cc1S(=O)(=O)N1CCN(Cc2ccc3c(c2)OCO3)CC1 | inconclusive: 20.6 µM [cytotoxic, partial curve] | 
COc1ccc(C(=O)NN(C)c2nc(-c3ccccc3)cc(C)c2S(C)(=O)=O)cc1 | inconclusive: 10.3 µM [cytotoxic, partial curve] | 
C(=C\c1ccccc1)/CN1CCN(C(c2cccs2)c2nnnn2Cc2ccccc2)CC1 (stereo unspecified) | inconclusive: 23.1 µM [cytotoxic, single point] | 
Cc1noc(C)c1S(=O)(=O)N(C)C[C@H]1OCc2cnnn2CCCC(=O)N([C@@H](C)CO)C[C@H]1C |  | inconclusive: -37.1% [cytotoxic]

Next results

Compound | Potency | activity change, negative = cytotoxicity
CC(=O)c1ccc(N2C(=O)N(Cc3ccc(F)cc3)c3ccccc3S2(=O)=O)cc1 |  | inactive: -33.7%
CC(C)(C)OC(=O)N1CCC(c2c(C(=O)NCCN3CCOCC3)cnn2-c2cccc(F)c2)CC1 |  | inactive: 1.94%
CCN(CC)c1ccc(NC(=O)Cn2cc3c(n2)CCC(C)C3)c(C)c1 (stereo unspecified) | inconclusive: 0.58 µM [cytotoxic, full curve] | 
C/C=C1\COC(C(=O)NCc2ccccc2)(C(F)(F)F)C=C1C=C1CCCCC1 (stereo unspecified) |  | inactive: -41.7%
CCC(=O)Nc1ccc(C2C(=O)c3ccccc3C2=O)cc1 | inconclusive: 29.1 µM [cytotoxic, single point] | 
O=C(O)c1cc(S(=O)(=O)NC(Cc2c[nH]c3ccccc23)C(=O)O)ccc1Cl (stereo unspecified) | inconclusive: 29.1 µM [rising, single point] | 
COC(=O)C1=C(C)NC(C)=C(C(=O)OCC2CCCO2)C1c1cccc(Br)c1 (stereo unspecified) | inconclusive: 14.6 µM [cytotoxic, partial curve, poor fit] | 
Clc1ccccc1-c1nc(-c2ccncc2)no1 | inconclusive: 20.6 µM [cytotoxic, single point] and inconclusive: 29.1 µM [cytotoxic, single point] | 
C(=N\Nc1nc(-c2cccnc2)nc2ccccc12)/c1ccccc1 |  | inactive: -18.2%
O=C(O)C1C2C=CC(C2)C1C(=O)NCc1ccc(Cl)c(Cl)c1 (stereo unspecified) | inconclusive: 20.6 µM [cytotoxic, single point] | 
CCOc1ccc(N2CC(C(=O)OC)CC2=O)cc1 (stereo unspecified) | inconclusive: 10.3 µM [rising, partial curve, poor fit] | 
COc1ccc(OCCNC(=O)c2ccccc2OCC(=O)N2CCCCC2)cc1 | inconclusive: 13 µM [cytotoxic, partial curve] | 
Cc1ccc(CCNC(=O)C2COc3ccccc3C2)cc1 (stereo unspecified) | inconclusive: 6.51 µM [rising, partial curve, poor fit] | 
Cc1cc(C)c(C)c(S(=O)(=O)NC2CCN(Cc3ccccc3)CC2)c1C |  | inactive: -3.39%
COc1ccccc1NC(=O)CSc1nc2ccccc2c(=O)n1CC1CCCO1 (stereo unspecified) | inconclusive: 1.46 µM [cytotoxic, full curve, poor fit] | 
O=c1c2ccccc2nc(/C=C/c2ccc([N+](=O)[O-])o2)n1CCCO | inconclusive: 20.6 µM [cytotoxic, partial curve, poor fit] | 
O=C(CSCc1ccccc1)N/N=C/c1ccc(OCC(=O)N2CCCCC2)cc1 | active: 20.6 µM | 
COc1ccc(N2CCN(c3ncnc4c3nc3n4CCCCC3)CC2)cc1 | inconclusive: 2.31 µM [cytotoxic, partial curve, poor fit] | 
CN=c1scc(-c2c[nH]c3ccccc23)n1C |  | inactive: 3.95%
Cc1ccc(S(=O)(=O)c2cn(C)c3cc(N4CCOCC4)c(F)cc3c2=O)c(C)c1 |  | inactive: 10.7%
O=C(COC(=O)c1nc(Cl)ccc1Cl)NCc1cccs1 |  | inactive: 9.39%
COc1ccc(C(=O)c2ccc(Cl)c([N+](=O)[O-])c2)cc1 | inconclusive: 1.64 µM [cytotoxic, full curve, poor fit] | 

Compound | Potency | activity change, negative = cytotoxicity
CC(C)(C)n1nnnc1C(c1ccccc1)N1CCN(c2ccccn2)CC1 (stereo unspecified) |  | inconclusive: -33.6% [cytotoxic]
Cc1cc(C)nc(/N=C(\N)Nc2ccc(C)c([N+](=O)[O-])c2)n1 | inconclusive: 9.2 µM [cytotoxic, partial curve] | 
O=C(Cc1ccc2c(c1)CCCC2)Nc1ccccc1Cl | inconclusive: 18.4 µM [cytotoxic, single point] | 
Cc1cccc(NC(=O)CN(c2ccc(F)cc2)S(C)(=O)=O)c1 |  | inactive: -5.01%
Cc1ccnc(SCC(=O)Nc2sc3c(c2C#N)CCCC3)n1 | inconclusive: 7.31 µM [cytotoxic, partial curve] | 
CC(C)CCN1C(=O)c2ccccc2C1c1nnnn1-c1ccc2c(c1)OCCO2 (stereo unspecified) | inconclusive: 8.2 µM [cytotoxic, partial curve] | 
Cc1ccn(CC(=O)NC2CC(C)(C)Cc3c2cnn3-c2ccc(F)cc2)n1 (stereo unspecified) | inconclusive: 18.4 µM [cytotoxic, single point] | 
COc1ccc(/C=C/c2c([N+](=O)[O-])c(=O)n(C)c(=O)n2C)c(OC)c1OC |  | inconclusive: -38.3%
Cc1ccc(NC(=O)CCc2nnc3ccc(NCc4ccco4)nn23)cc1 |  | inactive: 11.6%
O=C(Nc1ccc(N2CCOCC2)cc1N1CCOCC1)c1ccc([N+](=O)[O-])cc1 | inconclusive: 5.8 µM [cytotoxic, full curve, poor fit] | 
Cc1ccc(C2CC(c3cccs3)=NN2C(=O)CSc2nc(=O)n3cc(C)ccc3n2)cc1 (stereo unspecified) | inconclusive: 4.11 µM [cytotoxic, partial curve, poor fit] | 
O=C(c1ccc(Cn2ccc([N+](=O)[O-])n2)cc1)N1CCN(Cc2ccccc2)CC1 | inconclusive: 29.1 µM [cytotoxic, single point] | 
COc1cc(C2c3cc4c(cc3OC(NNC(N)=O)C2C)OCO4)cc(OC)c1OC (stereo unspecified) | active: 7.31 µM | 
COc1ccc(O)c(/C=N/Nc2nc(C)cc(-c3ccccc3)n2)c1 | inconclusive: 4.61 µM [cytotoxic, full curve, poor fit] | 
O=C(CC[C@H]1O[C@@H](n2cnc3c(NC(=O)c4ccccc4)ncnc32)[C@H](O)[C@@H]1O)N[C@@H](CO)c1ccccc1 | inconclusive: 14.6 µM [rising, partial curve, poor fit] | 
CC(NC(=O)C(=O)NN=C1CCCCCCCCCCC1)c1ccccc1 (stereo unspecified) |  | inactive: -7.46%
CC(C(=O)NC1=NCCS1)(C(F)(F)F)C(F)(F)F | inconclusive: 1.84 µM [rising, partial curve, poor fit] | 
C=CCNC(=S)/N=c1/ccccn1CC |  | inactive: 22.1%
COc1ccc(N(CC(=O)NCCOc2ccccc2)S(=O)(=O)c2ccc(C)cc2)cc1 | inconclusive: 16.4 µM [cytotoxic, single point] | 
O=C(CN(Cc1ccc(F)cc1)C(=O)C1CSC(=O)C1)NC1CCCCC1 (stereo unspecified) | inconclusive: 20.6 µM [cytotoxic, partial curve, poor fit] | 
CCCc1nnc(NC(=O)C2CCN(C(=O)c3ccco3)CC2)s1 | inconclusive: 5.8 µM [rising, partial curve, poor fit] | 
C=CC[C@H](CC(=O)NCCO)C(=O)N[C@@H](COC(=O)[C@@H](CC=C)CC(=O)OC(C)(C)C)Cc1c[nH]c2ccccc12 |  | inactive: 4.86%
